In the supplement of paper PMC12819154, “High-throughput peptide-centric local stability assay extends protein–ligand identification to membrane proteins, tissues and bacteria” (Nature Structural & Molecular Biology, 2025):
Some of the results follow. Most values lie at the level of the controls, where differences are scatter.

Protein sequences, listed by entry. Tags and fused reporters are not part of them. Lines headed by an entry give the natural chain unless they say otherwise; changes in a name come on top.
UniProt Q5U3K5: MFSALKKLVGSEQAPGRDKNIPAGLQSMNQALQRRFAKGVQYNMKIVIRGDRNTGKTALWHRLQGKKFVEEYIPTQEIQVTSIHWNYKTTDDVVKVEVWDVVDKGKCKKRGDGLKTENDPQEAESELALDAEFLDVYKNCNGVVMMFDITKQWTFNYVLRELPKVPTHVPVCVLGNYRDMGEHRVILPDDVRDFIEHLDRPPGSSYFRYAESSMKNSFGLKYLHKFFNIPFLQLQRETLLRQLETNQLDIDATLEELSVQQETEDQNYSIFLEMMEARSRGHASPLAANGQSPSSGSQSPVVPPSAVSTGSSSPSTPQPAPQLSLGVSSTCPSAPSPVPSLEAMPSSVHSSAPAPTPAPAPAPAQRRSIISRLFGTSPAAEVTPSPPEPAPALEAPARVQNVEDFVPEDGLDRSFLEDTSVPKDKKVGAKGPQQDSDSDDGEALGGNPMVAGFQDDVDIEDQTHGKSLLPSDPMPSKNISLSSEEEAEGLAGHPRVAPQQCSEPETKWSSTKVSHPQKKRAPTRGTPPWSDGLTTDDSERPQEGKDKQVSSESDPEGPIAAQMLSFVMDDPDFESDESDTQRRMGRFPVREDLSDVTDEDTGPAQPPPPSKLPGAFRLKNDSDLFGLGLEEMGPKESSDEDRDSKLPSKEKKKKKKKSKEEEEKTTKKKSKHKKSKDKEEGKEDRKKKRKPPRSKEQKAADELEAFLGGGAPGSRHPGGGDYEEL
UniProt Q5HZH7: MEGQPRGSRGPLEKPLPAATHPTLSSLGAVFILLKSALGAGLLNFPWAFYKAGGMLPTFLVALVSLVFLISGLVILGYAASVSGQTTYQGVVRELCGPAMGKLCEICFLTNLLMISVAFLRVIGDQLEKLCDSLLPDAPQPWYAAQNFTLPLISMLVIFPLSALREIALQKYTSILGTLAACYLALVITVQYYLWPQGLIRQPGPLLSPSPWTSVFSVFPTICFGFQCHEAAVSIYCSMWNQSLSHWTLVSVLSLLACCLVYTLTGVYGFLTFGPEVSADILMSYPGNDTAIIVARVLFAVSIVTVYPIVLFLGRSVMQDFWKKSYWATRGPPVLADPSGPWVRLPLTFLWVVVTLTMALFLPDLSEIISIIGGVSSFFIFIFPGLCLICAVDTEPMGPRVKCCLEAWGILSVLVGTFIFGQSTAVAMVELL
UniProt Q61112: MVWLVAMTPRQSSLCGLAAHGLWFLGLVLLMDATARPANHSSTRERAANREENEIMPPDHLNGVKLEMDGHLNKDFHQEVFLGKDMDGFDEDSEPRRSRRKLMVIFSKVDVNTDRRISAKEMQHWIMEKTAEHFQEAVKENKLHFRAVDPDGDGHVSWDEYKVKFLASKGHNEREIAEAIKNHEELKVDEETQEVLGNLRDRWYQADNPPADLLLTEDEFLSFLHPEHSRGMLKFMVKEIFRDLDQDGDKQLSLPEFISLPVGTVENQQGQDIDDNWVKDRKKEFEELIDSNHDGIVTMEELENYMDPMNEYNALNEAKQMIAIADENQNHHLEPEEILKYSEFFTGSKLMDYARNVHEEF
UniProt Q5EBG8: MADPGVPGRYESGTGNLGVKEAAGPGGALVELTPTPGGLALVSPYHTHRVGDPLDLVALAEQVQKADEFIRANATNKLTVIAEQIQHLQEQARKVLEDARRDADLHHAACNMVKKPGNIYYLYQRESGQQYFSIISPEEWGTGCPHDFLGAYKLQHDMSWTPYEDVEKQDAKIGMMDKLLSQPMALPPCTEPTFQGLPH
UniProt Q5SU73, whole entry: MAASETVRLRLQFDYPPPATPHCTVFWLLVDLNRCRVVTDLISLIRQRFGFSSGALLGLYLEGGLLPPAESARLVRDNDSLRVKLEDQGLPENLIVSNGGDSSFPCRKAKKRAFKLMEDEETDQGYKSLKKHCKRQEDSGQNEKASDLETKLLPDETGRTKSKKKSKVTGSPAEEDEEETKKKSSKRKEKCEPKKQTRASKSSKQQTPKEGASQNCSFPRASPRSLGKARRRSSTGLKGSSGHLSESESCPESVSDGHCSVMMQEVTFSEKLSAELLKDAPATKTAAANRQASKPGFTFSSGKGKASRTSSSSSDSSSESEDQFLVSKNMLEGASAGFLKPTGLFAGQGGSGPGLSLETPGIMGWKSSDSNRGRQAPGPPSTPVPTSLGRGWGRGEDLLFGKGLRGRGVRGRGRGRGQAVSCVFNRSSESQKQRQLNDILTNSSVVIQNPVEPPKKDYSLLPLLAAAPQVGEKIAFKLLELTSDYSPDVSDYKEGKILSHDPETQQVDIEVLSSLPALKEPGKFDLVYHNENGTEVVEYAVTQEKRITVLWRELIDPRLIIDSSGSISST
UniProt Q5SSH7: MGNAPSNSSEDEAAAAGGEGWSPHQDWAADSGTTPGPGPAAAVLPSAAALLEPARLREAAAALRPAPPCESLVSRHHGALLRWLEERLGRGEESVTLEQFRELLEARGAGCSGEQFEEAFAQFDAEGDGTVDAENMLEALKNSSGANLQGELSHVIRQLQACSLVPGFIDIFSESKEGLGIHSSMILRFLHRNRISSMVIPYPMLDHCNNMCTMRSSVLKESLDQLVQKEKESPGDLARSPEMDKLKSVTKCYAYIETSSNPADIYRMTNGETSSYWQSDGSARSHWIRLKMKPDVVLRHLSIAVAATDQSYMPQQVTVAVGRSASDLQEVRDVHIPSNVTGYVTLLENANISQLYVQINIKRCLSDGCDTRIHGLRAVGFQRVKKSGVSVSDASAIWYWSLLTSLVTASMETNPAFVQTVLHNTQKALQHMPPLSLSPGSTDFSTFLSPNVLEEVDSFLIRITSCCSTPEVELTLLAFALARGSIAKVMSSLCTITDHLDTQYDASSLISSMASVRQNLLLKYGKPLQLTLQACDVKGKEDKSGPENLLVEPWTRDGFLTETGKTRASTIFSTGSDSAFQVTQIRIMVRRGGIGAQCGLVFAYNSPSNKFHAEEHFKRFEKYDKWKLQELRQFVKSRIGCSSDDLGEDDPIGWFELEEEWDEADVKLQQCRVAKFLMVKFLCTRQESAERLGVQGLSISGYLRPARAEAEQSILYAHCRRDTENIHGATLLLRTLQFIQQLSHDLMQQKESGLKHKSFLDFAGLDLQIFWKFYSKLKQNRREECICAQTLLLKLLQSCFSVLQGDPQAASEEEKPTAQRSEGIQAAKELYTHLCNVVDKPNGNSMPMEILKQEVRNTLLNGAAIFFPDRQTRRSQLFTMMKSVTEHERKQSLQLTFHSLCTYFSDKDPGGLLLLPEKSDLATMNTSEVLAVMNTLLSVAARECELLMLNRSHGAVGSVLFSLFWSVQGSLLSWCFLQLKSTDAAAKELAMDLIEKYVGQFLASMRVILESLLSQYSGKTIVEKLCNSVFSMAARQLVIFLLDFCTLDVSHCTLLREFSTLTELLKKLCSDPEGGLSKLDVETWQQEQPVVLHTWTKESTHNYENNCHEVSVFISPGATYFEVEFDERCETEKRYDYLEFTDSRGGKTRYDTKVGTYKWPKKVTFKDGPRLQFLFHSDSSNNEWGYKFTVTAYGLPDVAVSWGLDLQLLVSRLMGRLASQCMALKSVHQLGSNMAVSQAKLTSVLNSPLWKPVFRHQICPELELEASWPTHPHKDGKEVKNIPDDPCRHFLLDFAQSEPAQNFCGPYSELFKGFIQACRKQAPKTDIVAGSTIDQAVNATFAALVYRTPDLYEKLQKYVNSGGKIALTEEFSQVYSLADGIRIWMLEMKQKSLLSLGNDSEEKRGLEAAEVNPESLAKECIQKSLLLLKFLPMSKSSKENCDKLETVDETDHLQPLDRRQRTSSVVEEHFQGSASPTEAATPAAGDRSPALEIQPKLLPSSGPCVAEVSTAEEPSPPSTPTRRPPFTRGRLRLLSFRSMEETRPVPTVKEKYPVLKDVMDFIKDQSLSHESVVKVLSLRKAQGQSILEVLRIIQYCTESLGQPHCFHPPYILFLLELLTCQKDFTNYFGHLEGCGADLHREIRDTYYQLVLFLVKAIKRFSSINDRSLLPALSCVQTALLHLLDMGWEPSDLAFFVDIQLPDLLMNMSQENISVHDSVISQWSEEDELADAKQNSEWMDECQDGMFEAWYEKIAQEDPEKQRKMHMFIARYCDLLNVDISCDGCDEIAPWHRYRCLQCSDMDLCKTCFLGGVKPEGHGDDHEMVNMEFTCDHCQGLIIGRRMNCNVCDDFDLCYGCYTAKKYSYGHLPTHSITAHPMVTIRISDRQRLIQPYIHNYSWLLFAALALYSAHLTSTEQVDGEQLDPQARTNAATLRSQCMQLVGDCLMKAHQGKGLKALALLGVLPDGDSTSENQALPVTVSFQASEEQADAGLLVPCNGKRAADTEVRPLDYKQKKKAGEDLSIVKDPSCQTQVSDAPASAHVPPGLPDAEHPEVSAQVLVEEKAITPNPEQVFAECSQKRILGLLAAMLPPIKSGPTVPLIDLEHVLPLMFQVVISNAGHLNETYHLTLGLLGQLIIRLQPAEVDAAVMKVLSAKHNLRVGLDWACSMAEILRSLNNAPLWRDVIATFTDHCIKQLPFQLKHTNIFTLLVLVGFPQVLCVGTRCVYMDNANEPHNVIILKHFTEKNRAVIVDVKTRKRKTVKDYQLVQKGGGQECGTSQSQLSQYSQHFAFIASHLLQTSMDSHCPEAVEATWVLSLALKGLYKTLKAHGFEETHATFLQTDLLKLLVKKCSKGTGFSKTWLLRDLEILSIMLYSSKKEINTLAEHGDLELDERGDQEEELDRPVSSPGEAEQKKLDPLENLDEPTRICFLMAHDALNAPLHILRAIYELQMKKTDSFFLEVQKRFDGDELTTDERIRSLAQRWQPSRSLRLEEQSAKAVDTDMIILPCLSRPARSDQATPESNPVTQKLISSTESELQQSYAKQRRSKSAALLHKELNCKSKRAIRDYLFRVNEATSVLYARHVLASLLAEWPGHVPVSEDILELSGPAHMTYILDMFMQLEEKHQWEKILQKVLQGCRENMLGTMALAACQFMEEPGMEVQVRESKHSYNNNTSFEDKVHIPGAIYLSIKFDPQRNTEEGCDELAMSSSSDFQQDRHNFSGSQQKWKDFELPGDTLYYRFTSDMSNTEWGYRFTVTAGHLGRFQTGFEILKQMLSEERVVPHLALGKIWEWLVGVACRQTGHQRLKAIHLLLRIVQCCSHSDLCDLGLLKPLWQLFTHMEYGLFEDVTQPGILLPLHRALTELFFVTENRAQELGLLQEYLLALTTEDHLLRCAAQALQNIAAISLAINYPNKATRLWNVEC
UniProt Q61127: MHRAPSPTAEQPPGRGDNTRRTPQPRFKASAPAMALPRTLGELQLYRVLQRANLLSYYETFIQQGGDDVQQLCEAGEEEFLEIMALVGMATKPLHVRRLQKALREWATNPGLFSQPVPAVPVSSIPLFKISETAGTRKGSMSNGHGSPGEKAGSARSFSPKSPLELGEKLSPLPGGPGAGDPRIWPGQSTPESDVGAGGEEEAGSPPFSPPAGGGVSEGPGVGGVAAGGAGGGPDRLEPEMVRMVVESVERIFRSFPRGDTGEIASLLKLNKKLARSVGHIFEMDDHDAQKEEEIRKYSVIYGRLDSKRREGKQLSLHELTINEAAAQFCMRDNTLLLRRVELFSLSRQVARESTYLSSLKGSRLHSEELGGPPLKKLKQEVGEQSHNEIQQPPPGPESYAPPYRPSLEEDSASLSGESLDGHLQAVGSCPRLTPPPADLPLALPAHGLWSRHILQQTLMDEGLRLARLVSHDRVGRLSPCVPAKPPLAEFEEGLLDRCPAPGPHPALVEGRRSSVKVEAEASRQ
UniProt Q5ND28: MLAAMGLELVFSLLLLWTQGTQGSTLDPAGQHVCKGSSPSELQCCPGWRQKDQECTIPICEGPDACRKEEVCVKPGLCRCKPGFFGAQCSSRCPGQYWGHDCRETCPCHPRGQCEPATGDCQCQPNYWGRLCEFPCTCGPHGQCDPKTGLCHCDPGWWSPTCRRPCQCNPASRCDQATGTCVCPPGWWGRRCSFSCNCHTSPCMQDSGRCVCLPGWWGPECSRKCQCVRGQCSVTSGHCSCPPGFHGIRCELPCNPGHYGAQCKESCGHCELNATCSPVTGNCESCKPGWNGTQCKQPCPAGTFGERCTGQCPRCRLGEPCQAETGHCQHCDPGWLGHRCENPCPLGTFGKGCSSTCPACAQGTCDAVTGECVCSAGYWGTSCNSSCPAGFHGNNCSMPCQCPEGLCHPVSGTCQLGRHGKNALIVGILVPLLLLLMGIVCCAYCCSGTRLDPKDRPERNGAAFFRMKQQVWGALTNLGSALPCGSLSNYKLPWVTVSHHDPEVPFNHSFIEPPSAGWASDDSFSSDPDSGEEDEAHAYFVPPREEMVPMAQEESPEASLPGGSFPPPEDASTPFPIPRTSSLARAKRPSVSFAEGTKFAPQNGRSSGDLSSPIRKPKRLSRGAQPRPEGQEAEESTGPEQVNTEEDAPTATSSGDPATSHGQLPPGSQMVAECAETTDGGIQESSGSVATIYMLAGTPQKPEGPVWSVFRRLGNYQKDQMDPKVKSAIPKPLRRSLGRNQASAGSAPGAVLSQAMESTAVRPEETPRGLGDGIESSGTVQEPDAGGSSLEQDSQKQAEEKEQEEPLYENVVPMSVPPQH

Compound: CN[C@@H]1C[C@H]2O[C@@](C)([C@@H]1OC)n1c3ccccc3c3c4c(c5c6ccccc6n2c5c31)C(=O)NC4 [staurosporine]
Assay: log2 fold change of tryptic peptide abundance, ligand vs vehicle (limited proteolysis) (log2 ratio); higher = more trypsin-susceptible (destabilized)
Details: ligand concentration: 20 uM; sample: mouse liver crude lysate; replicate design: treated separately

Target | log2 fold change
UniProt Q60969 (peptide sequence: SLAVHSGTTGSVKR, peptide start residue: 191) | -0.0826
UniProt Q5XKN4 (peptide sequence: AAGTDGSDFQHR, peptide start residue: 9) | 0.0713
UniProt Q5SS90 (peptide sequence: LISNGYKDEWLQQQK, peptide start residue: 216) | -0.273
UniProt Q5F2F2 (peptide sequence: TSVRDHEEQEVASGGPADQFSDRR, peptide start residue: 31) | -0.476
UniProt Q61102 (peptide sequence: VQNQDSLGWDAKK, peptide start residue: 712) | -0.127
UniProt Q5U3K5 (peptide sequence: SLLPSDPMPSK, peptide start residue: 467) | 0.184
UniProt Q61088 (peptide sequence: GNGWVKPGK, peptide start residue: 523) | -0.237
UniProt Q5HZH7 (peptide sequence: SVMQDFWKK, peptide start residue: 316) | 0.00672
UniProt Q61214 (peptide sequence: MHTGGETSACKPSSVR, peptide start residue: 1) | 0.37
UniProt Q61112 (peptide sequence: AVDPDGDGHVSWDEYK, peptide start residue: 147) | -0.0788
UniProt Q5F293 (peptide sequence: RHSNVHSWRR, peptide start residue: 302) | -0.36
UniProt Q61146 (peptide sequence: SKLSHIKR, peptide start residue: 504) | 1.35
UniProt Q5EBG8 (peptide sequence: DADLHHAACNMVK, peptide start residue: 102) | 0.123
UniProt Q5SU73 (peptide sequence: VTGSPAEEDEEETKKK, peptide start residue: 168) | 0.27
UniProt Q5FW57 (peptide sequence: GYPVYNHTEQTNK, peptide start residue: 258) | 0.148
UniProt Q60991 (peptide sequence: KLLTDDDLNEDVHR, peptide start residue: 125) | -0.158

Some of the entries above in a different format.

| Target | log2 fold change |
| --- | --- |
| UniProt Q61088 (peptide sequence: GNGWVKPGK, peptide start residue: 523) | -0.237 |
| UniProt Q5HZH7 (peptide sequence: SVMQDFWKK, peptide start residue: 316) | 0.00672 |
| UniProt Q61214 (peptide sequence: MHTGGETSACKPSSVR, peptide start residue: 1) | 0.37 |
| UniProt Q61112 (peptide sequence: AVDPDGDGHVSWDEYK, peptide start residue: 147) | -0.0788 |
| UniProt Q5F293 (peptide sequence: RHSNVHSWRR, peptide start residue: 302) | -0.36 |
| UniProt Q61146 (peptide sequence: SKLSHIKR, peptide start residue: 504) | 1.35 |
| UniProt Q5EBG8 (peptide sequence: DADLHHAACNMVK, peptide start residue: 102) | 0.123 |

Later entries

Target | log2 fold change
UniProt Q61097 (peptide sequence: RPWRGPISR, peptide start residue: 536) | -0.103
UniProt Q60520 (peptide sequence: SDSPAIQLR, peptide start residue: 939) | -0.318
UniProt Q5SSH7 (peptide sequence: SLLSLGNDSEEKR, peptide start residue: 1392) | -0.129
UniProt Q61127 (peptide sequence: KYSVIYGR, peptide start residue: 297) | 0.287
UniProt Q61129 (peptide sequence: YYEKEMQCAGTR, peptide start residue: 523) | 0.377
UniProt Q60714 (peptide sequence: LLPQVDTTGTFK, peptide start residue: 587) | 0.298
UniProt Q61183 (peptide sequence: VPNPIVGVK, peptide start residue: 636) | 0.244
UniProt Q61024 (peptide sequence: ADWLTHYWMPK, peptide start residue: 530) | -0.657
UniProt Q5SVR0 (peptide sequence: MTFLFANLKDRDFLVQR, peptide start residue: 373) | -0.495
UniProt Q5FWI3 (peptide sequence: VVPLRPAPPPK, peptide start residue: 32) | 0.48
UniProt Q5SV85 (peptide sequence: KEETPAEEQPKK, peptide start residue: 1252) | -0.715
UniProt Q5SUF2 (peptide sequence: ESDTKNEVNGTSEDIK, peptide start residue: 409) | 0.442
UniProt Q5NCI0 (peptide sequence: DLNLGTNPR, peptide start residue: 297) | 0.198
UniProt Q5ND28 (peptide sequence: SAIPKPLR, peptide start residue: 727) | 0.434
UniProt Q5IR70 (peptide sequence: YRRHVGSLINK, peptide start residue: 765) | -0.487
